Shown are survivors of the treated group in tumour-free mice. Survivors were counted at the toxicity check, usually on the fifth day, unless a day is given; later deaths do not show. Schedules are NCI's codes, taken here to give the interval after Q, in days (D) or hours (H), and the number of doses after X.
System: CD2F1 mice, nontumored, toxicity/survival
Experiment: NCI In Vivo Anticancer Drug Screen. Data for tumor model Nontumored Animals (Toxicity Test) in CD2F1 (CDF1) mice
Conditions: schedule: Q01DX001 (ip), vehicle: other

Measured: survivor count

Cc1c(N)ncc2ccccc12
2 of 2: dose: 1.0 mg/kg/injection | dose: 10.0 mg/kg/injection | dose: 100.0 mg/kg/injection

Nc1nc2c(c(=O)[nH]1)N=C(CCc1ccccc1)CO2
2 of 2: dose: 1.0 mg/kg/injection | dose: 10.0 mg/kg/injection | dose: 100.0 mg/kg/injection

From PubChem BioAssay AID188 (DTP/NCI, 2004)
